According to patent publication US20060172958A1, “Phospholipid scramblase 3” (priority 2003, published 2006):
No constants are given. Whether binding was seen depends on the method and setting. Binding seen in cells or lysates may run through a third protein. Some results given as binding are weak or reduced against the parent protein; the word gives no strength. Tags and fused reporters may be left off the sequences shown.

Amino acid sequences for entries named in this document (tags omitted). A change or cut given only in a name is not applied to a line headed by its entry.
UniProt Q9NRY6: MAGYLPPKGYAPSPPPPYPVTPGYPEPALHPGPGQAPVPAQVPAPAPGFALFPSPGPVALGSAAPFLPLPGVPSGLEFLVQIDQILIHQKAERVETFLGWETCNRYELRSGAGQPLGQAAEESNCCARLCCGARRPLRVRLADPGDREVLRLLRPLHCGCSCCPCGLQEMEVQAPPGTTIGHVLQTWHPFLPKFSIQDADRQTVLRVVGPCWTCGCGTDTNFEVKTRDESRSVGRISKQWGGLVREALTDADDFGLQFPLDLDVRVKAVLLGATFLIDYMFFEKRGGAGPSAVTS

Legend:
[1] = target: phospholipid scramblase 3 alpha (PLS3α) (human) (UniProt Q9NRY6); experiment: co-immunoprecipitation from 293T cells with PLS3 antibody, Western blot with GFP antibody
[2] = target: phospholipid scramblase 3 alpha (PLS3α) (human) (UniProt Q9NRY6); experiment: co-immunoprecipitation from 293T cell lysates with polyclonal PLS3 antibody, Western blot with EGFP monoclonal antibody
[3] = target: phospholipid scramblase 3 alpha (PLS3α) (human) (UniProt Q9NRY6); experiment: restates the co-immunoprecipitation and yeast two-hybrid results

binding [1]: binds | binding [2]: binds | binding [3]: binds
B1: EGFP-Bcl-B fusion protein (protein, human, UniProt Q9HD36 1-204, looked up, not shown: large carriers)
chain: MVDQLRERTTMADPLRERTELLLADYLGYCAREPGTPEPAPSTPEAAVLRSAAARLRQIHRSFFSAYLGYPGNRFELVALMADSVLSDSPGPTWGRVVTLVTFAGTLLERGPLVTARWKKWGFQPRLKEQEGDVARDCQRLVALLSSRLMGQHRAWLQAQGGWDGFCHFFRTPFPLAFWRKQLVQAFLSCLLTTAFIYLWTRLL
